The values that follow come from PubChem BioAssay AID926 (National Center for Advancing Translational Sciences (NCATS), 2007).

Amino acid sequences for entries named in this document (tags omitted).
UniProt P16473, whole entry, looked up: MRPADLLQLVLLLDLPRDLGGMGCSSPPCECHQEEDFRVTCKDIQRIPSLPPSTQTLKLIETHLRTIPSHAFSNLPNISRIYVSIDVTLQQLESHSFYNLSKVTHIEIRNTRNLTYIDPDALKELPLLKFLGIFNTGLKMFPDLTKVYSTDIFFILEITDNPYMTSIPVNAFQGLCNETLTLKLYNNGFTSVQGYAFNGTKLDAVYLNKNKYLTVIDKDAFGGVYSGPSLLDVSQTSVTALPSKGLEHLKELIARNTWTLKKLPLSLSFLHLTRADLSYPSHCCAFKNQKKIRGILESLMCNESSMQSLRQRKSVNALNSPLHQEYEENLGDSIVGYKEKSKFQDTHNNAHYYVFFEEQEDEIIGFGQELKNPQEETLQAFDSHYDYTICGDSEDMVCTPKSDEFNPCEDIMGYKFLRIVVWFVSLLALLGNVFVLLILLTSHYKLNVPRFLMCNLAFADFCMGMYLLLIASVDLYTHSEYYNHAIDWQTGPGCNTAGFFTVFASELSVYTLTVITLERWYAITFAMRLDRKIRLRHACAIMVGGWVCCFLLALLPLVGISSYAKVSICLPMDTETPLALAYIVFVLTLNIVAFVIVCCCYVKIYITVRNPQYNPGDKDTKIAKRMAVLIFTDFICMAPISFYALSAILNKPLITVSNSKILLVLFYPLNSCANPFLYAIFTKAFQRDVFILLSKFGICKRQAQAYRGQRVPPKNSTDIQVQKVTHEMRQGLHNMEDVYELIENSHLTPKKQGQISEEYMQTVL

Hit rate of the full screen: of about 73,000 compounds, about 350 (0.48%) were called active. Roughly 17% stayed inconclusive and do not appear here. Calls follow the shape of the dose curve; as a rule, active = well fitted activation curve with a large enough effect in the main read-out, with a control signal flat (not every such curve was filed as active); inconclusive = small, poorly fitted or top-dose-only effect, or a change in a side signal; inactive = no such curve, though single readings can be large or run the other way; reference of the percent scale not stated here. Only a part is listed here, and it is no random draw. Entries without a call were filed so in the source.
Potency is read from the fitted curve at half-maximal effect.

The target in this assay is Thyrotropin receptor (Homo sapiens) (UniProt P16473). Description: qHTS Assay for Agonists of the Thyroid Stimulating Hormone Receptor. The following applies: HEK293-CNG-TSHR cells (CNG channel as cAMP sensor), membrane potential dye, cAMP; activation: at 57.1 µM (top of the series) unless noted. From the text: NIH Chemical Genomics Center [NCGC]
NIH Molecular Libraries Screening Centers Network [MLSCN]
PI Name: Dr. Marvin Gershengorn, NIH
Thyroid Stimulating Hormone Receptor
TSH is an alpha/beta heterodimeric glycoprotein hormone secreted from the anterior pituitary gland which belongs to the glycoprotein hormone family. The actions of TSH are mediated by a seven-transmembrane receptor, which upon TSH binding couples preferentially to the G-alpha (s) protein (Gs), resulting in activation of adenylate cyclase and increase in cyclic adenosine 3', 5' monophosphate (cAMP). The TSH receptor (THSR) is mainly expressed in thyroid follicular cells and regulates their growth and function. Recombinant TSH is used to activate TSHR in patients with thyroid cancer receiving thyroid hormone suppression therapy and to screen for residual tumor after surgery, but it is expensive and must be administered intramuscularly. An orally active small molecule TSHR agonist would serve as an invaluable research tool for studying TSHR pharmacology and physiology, and would have multiple advantages in therapeutic settings. However, no selective small molecule agonist of the TSH receptor exists, and no small molecule screen for TSHR agonists has ever been reported.
This cell based assay utilized a cyclic nucleotide gated ion channel (CNG) as a biosensor for cAMP induction by potential TSHR agonists.
HEK 293 cells stably expressing the TSHR as well as a modified CNG were purchased from BD biosciences. Stimulation of cAMP production causes the CNG to open and subsequent membrane depolarization to occur. A fluorescent membrane potential dye (BD biosciences) was utilized to detect cAMP stimulation in TSHR cells.
The cells were maintained in DMEM medium (Invitrogen) containing 10 % FBS (Hyclone), 100 units/ml Penicillin, 100 ug/ml Streptomycin (Invitrogen), and 250 ug/ml Geneticin (Invitrogen) and 1 ug/ml Puromycin (Invitrogen) at 37C in 5% CO2. HEK 293 cells expressing CNG but without TSHR (parental cells) were used in concert to control for compounds signaling through endogenous receptors and targets of HEK 293 cells.
NCGC Assay Protocol Summary:
High Throughput Screening. Freshly passaged cells (TSHR or parental) were dispensed into 1536-well assay plates at 4 ul/well in DMEM containing phenol red (Invitrogen), 10% FCS (Hyclone), and 100 units/ml Penicillin, 100 ug/ml Streptomycin (Invitrogen) and incubated at 37 C with 5% CO2 for 20 to 36 hrs before the robotic screening. The screen was initiated by addition of 4 ul/well membrane potential dye containing 100 uM RO 20-1724 (Sigma Aldrich), followed by 60 min incubation at room temperature to allow for dye equilibration across the cell membrane. 23 nl/well compound or control was then added to the assay plates, which were incubated for additional 30 min before reading a Envision fluorescence plate reader (Perkin Elmer) in bottom-read mode for fluorescence intensity (emission at 590 nm).
Keywords: Thyroid-stimulating hormone TSH, TSHR, TSHR agonist, quantitative high throughput screening, qHTS, HTS, probe identification, CNG, cAMP, cyclic nucleotide gated ion channel PubChem
A general note: In qHTS, concentration-response curves come from the screen itself.
For the compound `CC(C)Oc1ccc2c(=O)c3cc(C(=O)O)ccc3oc2c1`, the activation came to 33.9%. For `O=C1c2ccccc2C(O)N1Cc1ccccc1` (stereo unspecified), the activation was 36%. In the case of `CC(C)CCn1c(N)c(S(=O)(=O)c2cccs2)c2nc3ccccc3nc21`, the Potency is active: 12.6 µM. Consider `NC(=O)c1nsc(C(=O)N(CC(=O)NCc2ccc3c(c2)OCO3)C2CCCC2)c1N`, for which the Potency is active: 12.6 µM.

Regarding `CC(C)=C1C2C=CC1C1C(=O)N(c3ccc4c(c3)OCO4)C(=O)C21` (stereo unspecified), the Potency was active: 2.51 µM. On to `COc1cccc(-c2nn(-c3ccccc3)cc2CO)c1`, for which the “activation” value is inactive: -47.4%.

For the compound `O=C(Nc1ccc2nc(C3CC3)n(Cc3ccc(F)cc3)c(=O)c2c1)c1ccco1`, the activation is 46.3%. With `CCOc1cc2[nH]c(=O)n(CC3CCC(C(=O)NCCC(C)C)CC3)c(=O)c2cc1OCC` (stereo unspecified), the activation is 33.5%. `CC(C)C(c1nnnn1Cc1ccco1)N1CCN(c2nc3ccccc3s2)CC1` (stereo unspecified): the activation is 36.9%.

For the compound `O=C(CSc1nc2scc(-c3ccco3)c2c(=O)n1-c1ccccc1)N1CCOCC1`, the Potency is active: 15.8 µM. Turning to `Cc1ccc(C(N)=S)c(C)c1`, the activation amounted to 46%. Turning to `Cn1cc(CN2CCN(c3ccccc3)CC2)c2ccccc21`, the activation turned out to be 51.1%. Regarding `N=c1c(C(=O)NCc2ccc(F)cc2)cc2c(=O)n3ccccc3nc2n1Cc1ccco1`, the “activation” value was inactive: -42%.

On to `CCCCCCn1c(-c2ccco2)nc2oc3cc(OC)ccc3c(=O)c2c1=O`, for which the activation came out at 54.1%.

Take `COc1ccc(C(C(=O)NC2CCCC2)N(C(=O)c2ccco2)c2ccc3c(c2)OCO3)cc1OC` (stereo unspecified): the Potency was active: 10 µM. With `O=C1N=C(N2CCOCC2)S/C1=C1\C(=O)N(Cc2ccccc2)c2ccc(Br)cc21`, the “activation” value is inactive: -42.1%. Turning to `Cc1ccc(-n2c(SCC(=O)Nc3ccc4cn[nH]c4c3)nnc2-c2ccco2)cc1`, the activation is 44.8%. The same measure, in the same setting: the result for `COC(=O)c1ccc(CN2C(=O)c3ccccc3S2(=O)=O)cc1` reads 58.1%; that for `COc1cc(OC)c(NC2=NCCCCC2)cc1Cl`, 34.7%. As for `CCc1cc(Br)ccc1N1C(=O)C2CC=CCC2C1=O` (stereo unspecified), the Potency is active: 2.51 µM. For the compound `COc1ccccc1NS(=O)(=O)c1ccc(C(=O)OCC(=O)NCc2ccco2)cc1`, the activation was 54.3%. For `CC(=O)c1cn(CC(=O)Nc2ccccc2)c2ccccc12`, the activation came out at 41.4%.

For `O=C(c1cccc(F)c1)N1C2C=CC(C2)C1(C(F)(F)F)C(F)(F)F` (stereo unspecified), the Potency is active: 25.1 µM. For `Cc1ccc(NC(=O)COC(=O)c2ccn(C)n2)cc1`, the activation is 31.9%. For the compound `CCOC(=O)N1CCN(C(=O)c2cn(-c3ccc(C)c(C)c3)c(=O)c3ccccc23)CC1`, the activation was 37.7%.

As to `COC(=O)[C@H]1C[C@@H]1[C@H](NC(=O)OCc1ccccc1)c1ccccc1`, the activation is 99.7%. Same read-out and setting: the result for `CC1(C)S[C@@H]2[C@H](NC(=O)[C@H](C(=O)O)c3ccsc3)C(=O)N2[C@H]1C(=O)O` reads 31.4% [at 25.6 µM]; that for `CCOC(=O)C1=C(C)Nc2ncnn2C1/C=C/c1ccccc1` (stereo unspecified), 36.3%; that for `CCOC(=O)CSC1=Nc2ccccc2C2=NC(CC(=O)NCc3ccc(OC)cc3)C(=O)N12` (stereo unspecified), 36.3%.

Turning to `COc1cc(C(=O)OCC(=O)NC2CCCC2)cc(NC(=O)c2ccco2)c1OC`, the activation came out at 39.8%. In the case of `CO[C@@H]1C=CO[C@]2(C)Oc3c(C)c(O)c4c(O)c(c(C=NN5CCN(C)CC5)c(O)c4c3C2=O)NC(=O)C(C)=CC=C[C@H](C)[C@H](O)[C@H](C)[C@H](O)[C@H](C)[C@H](OC(C)=O)[C@H]1C`, the “activation” value was inactive: -6.69% [at 25.6 µM]. On the same count and under the same terms, the result for `N[C@H]1CCN(O)C1=O` reads inactive: 8.72%.

Turning to `C=CCc1ccccc1OC[C@H](O)CNC(C)C`, the “activation” value was inactive: -5.14% [at 25.6 µM]. `CCOC(=O)C(NC(=O)c1ccc(OC)cc1)(OCC1(CC)COC1)C(F)(F)F` (stereo unspecified): the Potency was active: 7.94 µM.

On to `Cc1oc(-c2cc(Cl)ccc2Cl)cc1-c1nn2c(C)nnc2s1`, for which the activation came to 35.4%.

Turning to `N[C@H](C(=O)O)c1cc(O)cc(O)c1`, the activation came out at 30%.
